This data set deals with MatP (Photorhabdus thracensis) (UniProt A0A0F7LUV5). Description: EMSA. The note with it: EMSA: 2 nM DNA, 20 mM HEPES, 30 mM NaCl, 1 mM TCEP, pH 7.3, 5 min at RT, 6% gel in 0.5x TBE at 4 C; recombinant protein; label: 5' 6-FAM on strand 1.

We go through two sequences from paper PMC8669397.

For at least one entry, the source does not settle the construct or the ends of the probe. A weaker result is weaker than the reference pair of the same experiment. At least one verdict rests on a figure or table, not on a statement of the authors.

“CACTGTGACATTGTCACGGCA (double strand) [matS1 21 bp]”: the binding result was “binds more weakly”. “CACTGTTACAGTGTAACGGCA (double strand) [matS2 21 bp]”: the binding result was “binds”.
